Assay results reported in patent publication US7026374B2, “Injectable microdispersions for medical applications” (priority 2002, dated 2006).
For at least one compound, name, drawing or mass did not settle the structure.

Test: Sustained release of rapamycin from microdispersion in vitro
Format: physicochemical
Details: in 15 days; 20 mg of Example 11 microdispersion containing rapamycin (30 mg per 1 gm) in 5 ml phosphate buffered saline, 37° C., shaker 90 rpm; optical density at 287 nm

CO[C@H]1C[C@@H]2CC[C@@H](C)[C@@](O)(O2)C(=O)C(=O)N2CCCC[C@H]2C(=O)O[C@H]([C@H](C)C[C@@H]2CC[C@@H](O)[C@H](OC)C2)CC(=O)[C@H](C)/C=C(\C)[C@@H](O)[C@@H](OC)C(=O)[C@H](C)C[C@H](C)/C=C/C=C/C=C/1C [rapamycin]
total amount of rapamycin released: 0.34 mg
total amount of rapamycin released (percent): 58%
